{"source": "patent US20150005368", "key": {"ERBB2 (HER2)": {"molecular_target": "ERBB2 (HER2) (Homo sapiens?) (UniProt P04626)", "assay": "ELONA", "conditions": "purified recombinant protein, protein details: R&D Systems 1129-ER-050, single-stranded DNA"}, "[1]": {"molecular_target": "ERBB2 (HER2) in A431 cells (UniProt P04626)", "assay": "activity in cells", "conditions": "6 (n) = NapdU [n positions 2,4,5,10,11,12,16,20,24,35 = modified dU], protein on the cell surface, single-stranded DNA, variant of clone #11 (1194-2, 9-ER-N-B12_C06)"}, "[2]": {"molecular_target": "ERBB2 (HER2) on MCF7 cells (UniProt P04626)", "assay": "flow cytometry", "conditions": "6 (n) = NapdU [n positions 2,4,5,10,11,12,16,20,24,35 = modified dU]; MCF7, 100 pmol, 4 C; cytochemistry also positive (FIG. 7B); protein on the cell surface; label: Cy3; single-stranded DNA; variant of AP001-24 (1194-34, #11 short)"}}, "note": "For some assays here: Results from cells or extracts need not show a direct contact. For some assays here: Construct, isoform or probe ends are uncertain for at least one entry.", "data": [{"sequence": "ATGTTAGAGTTTGCCTGAGTGCCTCGCAAGGGCGTAACAA [AP001-24 (1194-34, #11 short)]", "values": [{"measurement": "binding result", "setting": "ERBB2 (HER2); 6 (n) = NapdU [n positions 2,4,5,10,11,12,16,20,24,35 = modified dU], sandwich with AP001-25, detects ERBB2 down to 50 pg/ml in 5% serum, variant of clone #11 (1194-2, 9-ER-N-B12_C06)", "result": "binds"}, {"measurement": "functional effect of the aptamer", "setting": "[1]; 20 nM aptamer blocks EGF- or HRG-induced ERBB2 Tyr877 phosphorylation", "result": "active"}, {"measurement": "IC50", "setting": "[1]; inhibition of EGF-induced ERBB2 phosphorylation in A431", "result": 1, "unit": "nM"}]}, {"sequence": "ATGTTAGAGTTTGCCTGAGTGCCTCGCAAGGGCGTAACAA [Cy3-AP001-24]", "values": [{"measurement": "binding result", "setting": "[2]", "result": "binds"}]}, {"sequence": "TCCTGGCATGTTCGATGGAGGCCTTTGATTACAGCCCAGA [AP001-25 (1194-35, #12 short)]", "values": [{"measurement": "binding result", "setting": "ERBB2 (HER2); 6 (n) = NapdU [n positions 1,4,9,11,12,16,24,25,26,29,30 = modified dU], sandwich with AP001-24, AP001-25 immobilized on plate, 5% serum, variant of clone #12 (1194-1, 9-ER-N-C02_D06)", "result": "binds"}]}]}
